Laboratory results published in US20060205774A1, “4-(4-(Heterocyclylakoxy) phenyl-1-(heterocyclyl-carbonyl) piperidine derivavites and related compounds as histamine h3 antagonists for the treatment of neurological diseases such as alzheimer's” (priority 2003, published 2006).
Some of these results come from one statement about several compounds together.

By UniProt entry, the sequences of proteins in these tests, tags left out. Where a name states a change or a piece, a line headed by the entry shows the natural chain unless it says otherwise.
UniProt Q9Y5N1: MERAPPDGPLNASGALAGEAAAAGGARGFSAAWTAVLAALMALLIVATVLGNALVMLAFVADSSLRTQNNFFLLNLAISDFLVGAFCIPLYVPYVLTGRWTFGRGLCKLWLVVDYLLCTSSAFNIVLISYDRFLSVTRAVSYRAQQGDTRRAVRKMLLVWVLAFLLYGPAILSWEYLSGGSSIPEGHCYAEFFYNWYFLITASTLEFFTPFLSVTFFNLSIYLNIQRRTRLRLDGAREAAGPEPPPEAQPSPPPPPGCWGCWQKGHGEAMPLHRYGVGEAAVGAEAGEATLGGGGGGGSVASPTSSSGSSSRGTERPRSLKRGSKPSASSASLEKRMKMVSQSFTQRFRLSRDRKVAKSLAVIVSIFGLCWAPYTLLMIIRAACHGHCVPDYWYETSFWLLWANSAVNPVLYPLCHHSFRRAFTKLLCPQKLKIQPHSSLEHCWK

Molecular target: T1, histamine H3 receptor (Homo sapiens, UniProt Q9Y5N1)
T1 construct: expressed in transfected cells; host or cells: CHO K1 cells carrying pSwitch, transfected with pGeneH3, mifepristone-induced; clone 3H3; membrane preparation
Experiment: Histamine H3 functional antagonist assay (GTPγS SPA on membranes)
Assay type: biochemical
Conditions: membranes of CHO K1 cells expressing human histamine H3; [35S]GTPγS; histamine 0.3 μM
Description: A membrane preparation containing histamine H3 receptors may be prepared in accordance with the following procedures:
Ligated DNA was transformed into competent DH5α E. coli host bacterial cells and plated onto Luria Broth (LB) agar containing Zeocin™ (an antibiotic which allows the selection of cells expressing the sh ble gene which is present on pGene and pSwitch) at 50 μg ml^−1. Colonies containing the re-ligated plasmid were identified by restriction analysis. DNA for transfection into mammalian cells was prepared from 250 ml cultures of the host bacterium containing the pGeneH3 plasmid and isolated using a DNA preparation kit (Qiagen Midi-Prep) as per manufacturers guidelines (Qiagen).
CHO K1 cells previously transfected with the pSwitch regulatory plasmid (InVitrogen) were seeded at 2×10e6 cells per T75 flask in Complete Medium, containing Hams F12 (GIBCOBRL, Life Technologies) medium supplemented with 10% v/v dialysed foetal bovine serum, L-glutamine, and hygromycin (100 μg ml^−1), 24 hours prior to use. Plasmid DNA was transfected into the cells using Lipofectamine plus according to the manufacturers guidelines (InVitrogen). 48 hours post transfection cells were placed into complete medium supplemented with 500 μg ml^−1 Zeocin™.
10-14 days post selection 10 nM Mifepristone (InVitrogen), was added to the culture medium to induce the expression of the receptor. […] Approximately 1×10e7 cells were examined for receptor expression by staining with a rabbit polyclonal antibody, 4a, raised against the N-terminal domain of the histamine H3 receptor, incubated on ice for 60 minutes, followed by two washes in sorting medium. […] Following two further washes with Sorting Medium, cells were filtered through a 50 μm Filcon™ (BD Biosciences) and then analysed on a FACS Vantage SE Flow Cytometer fitted with an Automatic Cell Deposition Unit. […] Positively stained cells were sorted as single cells into 96-well plates, containing Complete Medium containing 500 μg ml^−1 Zeocin™ and allowed to expand before reanalysis for receptor expression via antibody and ligand binding studies.
All steps of the protocol are carried out at 4° C. and with pre-cooled reagents. […] The cells are then homogenised by 2×15 second bursts in a 1 litre glass Waring blender, followed by centrifugation at 500 g for 20 minutes. The supernatant is then spun at 48,000 g for 30 minutes. The pellet is resuspended in 4 volumes of buffer A2 by vortexing for 5 seconds, followed by homogenisation in a Dounce homogeniser (10-15 strokes). At this point the preparation is aliquoted into polypropylene tubes and stored at −70° C.
(II) Histamine H3 Functional Antagonist Assay

SMILES	pKb
CC(C)N1CCC(Oc2ccc(C3=CCN(C(=O)N4CCCC4)CC3)cc2)CC1 [Example E47, 4-(4-{[1-(1-Methylethyl)-4-piperidinyl]oxy}phenyl)-1-(1-pyrrolidinylcarbonyl)-1,2,3,6-tetrahydropyridine]	> 8.0
CC(C)N1CCC(Oc2ccc(C3=CCN(C(=O)c4ccc(C#N)cc4)CC3)cc2)CC1 [Example E40, 4-{[4-(4-{[1-(1-Methylethyl)-4-piperidinyl]oxy}phenyl)-3,6-dihydro-1(2H)-pyridinyl]carbonyl}benzonitrile]	> 8.0
C[C@@H]1CC[C@@H](C)N1CCCOc1ccc(C2CCN(C(=O)C3CCOCC3)CC2)cc1 [Example E50, 4-[4-({3-[(2R,5R)-2,5-Dimethyl-1-pyrrolidinyl]propyl}oxy)phenyl]-1-(tetrahydro-2H-pyran-4-ylcarbonyl)piperidine]	> 8.0
CC(C)N1CCC(Oc2ccc(C3=CCN(C(=O)C4CCOCC4)CC3)cc2)CC1 [Example E42, 4-(4-{[1-(1-Methylethyl)-4-piperidinyl]oxy}phenyl)-1-(tetrahydro-2H-pyran-4-ylcarbonyl)-1,2,3,6-tetrahydropyridine]	> 8.0
C[C@@H]1CCCN1CCCOc1ccc(C2CCN(C(=O)c3ccc(C#N)cc3)CC2)cc1 [Example E48, 4-({4-[4-({3-[(2R)-2-Methyl-1-pyrrolidinyl]propyl}oxy)phenyl]-1-piperidinyl}carbonyl)benzonitrile]	> 8.0
C[C@@H]1CCCN1CCCOc1ccc(C2CCN(C(=O)C3CCOCC3)CC2)cc1 [Example E49, 4-[4-({3-[(2R)-2-Methyl-1-pyrrolidinyl]propyl}oxy)phenyl]-1-(tetrahydro-2H-pyran-4-ylcarbonyl)piperidine]	> 8.0
CC(C)N1CCC(Oc2ccc(C3=CCN(C(=O)N4CCCCC4)CC3)cc2)CC1 [Example E46, 4-(4-{[1-(1-Methylethyl)-4-piperidinyl]oxy}phenyl)-1-(1-piperidinylcarbonyl)-1,2,3,6-tetrahydropyridine]	> 8.0
CC(C)N1CCC(Oc2ccc(C3=CCN(C(=O)c4ccncc4)CC3)cc2)CC1 [Example E44, 4-{[4-(4-{[1-(1-Methylethyl)-4-piperidinyl]oxy}phenyl)-3,6-dihydro-1(2H)-pyridinyl]carbonyl}pyridine]	> 8.0
CC(C)N1CCC(Oc2ccc(C3=CCN(C(=O)c4ccc(S(C)(=O)=O)cc4)CC3)cc2)CC1 [Example E43, 4-(4-{[1-(1-Methylethyl)-4-piperidinyl]oxy}phenyl)-1-{[4-(methylsulfonyl)phenyl]carbonyl}-1,2,3,6-tetrahydropyridine]	> 8.0
CC(C)N1CCC(Oc2ccc(C3CCN(C(=O)c4ccc(C#N)nc4)CC3)cc2)CC1 [Example E51, 5-{[4-(4-{[1-(1-Methylethyl)-4-piperidinyl]oxy}phenyl)-1-piperidinyl]carbonyl}-2-pyridinecarbonitrile]	> 8.0
CC(C)N1CCC(Oc2ccc(C3=CCN(C(=O)c4ccc(F)cc4)CC3)cc2)CC1 [Example E39, 1-[(4-Fluorophenyl)carbonyl]-4-(4-{[1-(1-methylethyl)-4-piperidinyl]oxy}phenyl)1,2,3,6-tetrahydropyridine]	> 8.0
CC(C)N1CCC(Oc2ccc(C3=CCN(C(=O)c4ccc(C(=O)N5CCCC5)cc4)CC3)cc2)CC1 [Example E41, 4-(4-{[1-(1-Methylethyl)-4-piperidinyl]oxy}phenyl)-1-{[4-(1-pyrrolidinylcarbonyl)phenyl]carbonyl}-1,2,3,6-tetrahydropyridine]	> 8.0
CC(C)N1CCC(Oc2ccc(C3CCN(C(=O)c4cnccn4)CC3)cc2)CC1 [Example E53, 2-{[4-(4-{[1-(1-Methylethyl)-4-piperidinyl]oxy}phenyl)-1-piperidinyl]carbonyl}pyrazine]	> 8.0
CC(C)N1CCC(Oc2ccc(C3CCN(C(=O)c4ccc(C(F)(F)F)nc4)CC3)cc2)CC1 [Example E52, 5-{[4-(4-{[1-(1-Methylethyl)-4-piperidinyl]oxy}phenyl)-1-piperidinyl]carbonyl}-2-(trifluoromethyl)pyridine]	> 8.0
CC(C)N1CCC(Oc2ccc(C3=CCN(C(=O)N4CCOCC4)CC3)cc2)CC1 [Example E45, 4-{[4-(4-{[1-(1-Methylethyl)-4-piperidinyl]oxy}phenyl)-3,6-dihydro-1(2H)-pyridinyl]carbonyl}morpholine]	> 8.0
